From patent US12060349B2, “Glucosylceramide synthase inhibitors” (Genzyme Corporation, priority 2012, dated 2024)

Experiments:
[1] = system: B16 mouse melanoma cells; assay: cell viability in the B16 cell-based assay (Viability, B16 IC50); details: concentration causing 50% cell death, values greater than 10 represent a lack of cell death
Protocol: (§1) The cell based assay was performed in two different cell types, B16 and C32. Cell viability was also assessed in the second, cell-based assay.
(§2) The “Compound Number” in the table corresponds to the compound disclosed in the Example of the same number. […] The results of the cell based assays (performed in two different cell systems, i.e. B16 mouse melanoma or C32 human melanoma cells) are expressed as “GM3 B16 IC50” or “GM3 C32 IC50” for the B16 assay and the C32 assay, respectively. […] The results of the viability assays are expressed as “Viability, B16 IC50” or “Viability, C32 IC50”, respectively. These values represent the concentration of the compound causing 50% cell death. Values greater than 10 represent a lack of cell death.

[2] = system: GM3 expression on the cell surface, C32 human melanoma cells; assay: cell based phenotypic assay, cell surface GM3 by antibody mediated immunofluorescence, C32 (GM3 C32 IC50); details: 50% inhibition of GM3 expression on the cell surface
Protocol: as §1, §2

[3] = system: C32 human melanoma cells; assay: cell viability in the C32 cell-based assay (Viability, C32 IC50); details: concentration causing 50% cell death, values greater than 10 represent a lack of cell death
Protocol: as §1, §2

[4] = biological target: T1, glucosylceramide synthase (Homo sapiens, UniProt Q16739); assay: microsomal assay measuring conversion of ceramide to glucosylceramide by HPLC (GCS IC50); format: biochemical; details: concentration causing 50% inhibition of glucosylceramide synthase activity
T1 construct: Microsomes were isolated from A375 human melanoma cells; endogenous in cells; host or cells: A375 human melanoma cells (microsomal fraction, 100,000 g pellet)
T1 sequence (Q16739 1-394): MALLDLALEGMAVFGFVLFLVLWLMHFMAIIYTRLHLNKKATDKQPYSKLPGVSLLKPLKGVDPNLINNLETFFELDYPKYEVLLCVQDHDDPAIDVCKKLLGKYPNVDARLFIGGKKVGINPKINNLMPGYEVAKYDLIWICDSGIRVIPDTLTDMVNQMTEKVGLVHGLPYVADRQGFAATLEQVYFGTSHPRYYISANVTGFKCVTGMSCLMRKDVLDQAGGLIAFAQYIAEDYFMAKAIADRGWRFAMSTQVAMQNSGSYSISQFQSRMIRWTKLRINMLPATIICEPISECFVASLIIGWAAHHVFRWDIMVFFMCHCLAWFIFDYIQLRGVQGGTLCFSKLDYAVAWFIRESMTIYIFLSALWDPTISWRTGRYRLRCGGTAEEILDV
Protocol: Inhibition of glucosylceramide synthase activity for certain compounds of the invention were measured with 1) a microsomal assay that directly measures the conversion of ceramide to glucosylceramide by HPLC and 2) second, cell based, phenotypic assay that monitors cell surface expression of the downstream lipid GM3 by antibody mediated immunofluorescence. The cell based assay was performed in two different cell types, B16 and C32. Cell viability was also assessed in the second, cell-based assay.
The “Compound Number” in the table corresponds to the compound disclosed in the Example of the same number. The results of the microsomal assay are expressed as “GCS IC50”, which represents the concentration of the compound causing 50% inhibition of glucosylceramide synthase activity. The results of the cell based assays (performed in two different cell systems, i.e. B16 mouse melanoma or C32 human melanoma cells) are expressed as “GM3 B16 IC50” or “GM3 C32 IC50” for the B16 assay and the C32 assay, respectively. These values represent the concentration of the compound causing 50% inhibition of GM3 expression on the cell surface. The results of the viability assays are expressed as “Viability, B16 IC50” or “Viability, C32 IC50”, respectively. These values represent the concentration of the compound causing 50% cell death. Values greater than 10 represent a lack of cell death.

[5] = system: GM3 expression on the cell surface, B16 mouse melanoma cells; assay: cell based phenotypic assay, cell surface GM3 by antibody mediated immunofluorescence, B16 (GM3 B16 IC50); details: 50% inhibition of GM3 expression on the cell surface
Protocol: as §1, §2

For COCCOc1ccc(Oc2cnc(N3CCC(F)(C(=O)NC4(C)CN5CCC4CC5)CC3)nc2)cc1 (centres unmarked) [Example 131, 4-Fluoro-1-(5-(4-(2-methoxyethoxy)phenoxy)pyrimidin-2-yl)-N-(3-methylquinuclidin-3-yl)piperidine-4-carboxamide], the IC50 [1] was ≥ 10000 nM, the IC50 [2] was 0.858 nM and the IC50 [3] was 1000 nM. For the same compound, the IC50 [4] was 6.81 nM and the IC50 [5] was 52.7 nM.
